Test results taken from PubChem BioAssay AID1508600 (Functional Genomics Laboratory (NCATS/FGL), 2020).
About 3,700 (7%) of roughly 53,000 sequences were called active.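 Rule for the calls: active = gene knockdowns whose robust z-score for IL-1 alpha signal is at least 2 or at most -2, so actives lie on both sides; inactive = the rest.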 This is one part of the list.

test: Components of the Cytosolic LPS Sensing Pathway: Gene Identification via Genome-wide siRNA Screen; conditions: RAW264.7 macrophages, IL-1a HTRF, actives lie on both sides, screened at 100 nM (by protocol), cells primed 5 h with Pam3CSK4 first;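 note: robust z of the log signal after scaling to non-targeting control siRNA wells of the plate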
How it was run: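 Three distinct siRNAs per gene were tested singly at 100 nM in RAW264.7 macrophages. Following Pam3CSK4 priming and 24 hour LipidA transfection, IL-1a secretion was read by HTRF.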

Row | Sequence | z-score
1 | GGCUCGCCUGAGAAAGUCUTT against Nudt7 | inactive: 1.16
2 | GGACUUGUACCUGACCUGATT against Iscu | inactive: 0.276
3 | GGAGAUGAUAAAGAUUAACTT against Glyr1 | inactive: 0.59
4 | GGUGCAAUCCUACAGUUCUTT against 1110008P14Rik | inactive: -0.762
5 | CGACAUCUCUAAAGUUAAATT against Map7d3 | inactive: 0.762
6 | CCAAUUUAACUGUUGGUGGTT against Supt5 | inactive: -0.105
7 | GGUAAAAGUCGAUGGCCAGTT against Calr3 | inactive: 1.06
8 | GGAAUAUGACUUCAAGAUGTT against Lmnb2 | active: 4.28
9 | GGAAAAUGUCAAAAUUGGCTT against Rfc4 | inactive: -0.289
10 | CCCAGAAUUGAACUAAAAATT against Mrpl32 | inactive: -0.488
11 | GACAAAGUAACAUCUGUAUTT against Olfr1447 | inactive: -1.6
12 | GCACUUUGUGCUAUAUAAGTT against Mapk14 | inactive: 0.616
13 | GCUAAGACUGUACUGUGACTT against Plekha8 | inactive: -0.351
14 | GGUGGUGGUACUGGUCAAUTT against Dhx58 | inactive: 0.314
15 | GCAAGACUGGCAAAGCUUCTT against Ccdc174 | inactive: 0.368
16 | GAGUCUUGUUUGAAAGAACTT against F730035P03Rik | inactive: -1.17
17 | GGCUGUCCGUACCUAUAAATT against Cpb1 | inactive: -1.26
18 | GGAGAAUGAACAGACAGAGTT against Slc39a14 | active: -2.06
19 | GGAGUCCUUUAAGAUUAUATT against Pex13 | inactive: 1.3
20 | GGGUUACAGAAUCUGUUAATT against Nup153 | inactive: -0.112
21 | GGAAGUGAAAGGUAAAUAGTT against Cyb5r3 | inactive: -1.35
22 | GCACUGACGACAAAAGUUCTT against Ngdn | inactive: -0.407

Given with each value named: entries from further up.
GGUGCAAUCCUACAGUUCUTT against 1110008P14Rik
  z-score: inactive: -0.762
CGACAUCUCUAAAGUUAAATT against Map7d3
  z-score: inactive: 0.762
CCAAUUUAACUGUUGGUGGTT against Supt5
  z-score: inactive: -0.105
GGUAAAAGUCGAUGGCCAGTT against Calr3
  z-score: inactive: 1.06

A different layout for part of the listing above.

| Row | Sequence | z-score |
| --- | --- | --- |
| 17 | GGCUGUCCGUACCUAUAAATT against Cpb1 | inactive: -1.26 |
| 18 | GGAGAAUGAACAGACAGAGTT against Slc39a14 | active: -2.06 |
| 19 | GGAGUCCUUUAAGAUUAUATT against Pex13 | inactive: 1.3 |

Further records.

Row | Sequence | z-score
23 | GGCAUGUGAUCUACCAAUCTT against Ly6g5b | inactive: 0.0456
24 | GCUGAAUCACAAGUACUGGTT against Ublcp1 | inactive: -1.58
25 | GGAGCAGAACAUUAUCUUCTT against Tnn | inactive: 0.603
26 | GGGAAUACAUUUGAGAUGATT against Ptgfrn | inactive: -1.75
27 | GGAAGAUGCCUUUUCCAAGTT against Syt1 | inactive: 0.752
28 | GCGCAUCAGAGUCUCAUAATT against Hivep1 | inactive: -1.39
29 | CCGAAGACUAGCUAAUUUUTT against Sult1c1 | inactive: 1.17
30 | CCUAUCUAUGACCUCACAUTT against Rorb | inactive: -0.277
31 | GGUAAAUUACAAAGUGAAGTT against Prxl2a | inactive: -1.88
32 | GCAUUUAGUGAGUUCAGUGTT against Kirrel3os | inactive: 0.855
33 | CCUGAGGUUACAAGACGGUTT against Dll3 | inactive: 1.56
34 | GGCUCAGAAACAACAGGCUTT against Sh2d3c | inactive: -1.19
35 | GGCCAUAGAAAUAAUGCUATT against Dcaf8 | inactive: 0.454
36 | GCGGCUGAUACACUUUGUATT against Maob | inactive: -0.515
37 | GGACCUGGAUUUGUGCUUUTT against Smim3 | inactive: -1.04
38 | CCUUGCUACGGAUUGGAGATT against Spint4 | inactive: 0.1
39 | GGCUACCGUGAAGAUGGAGTT against Fabp6 | inactive: -0.537
40 | GCUGAAACAUCGGUAUGAGTT against Pla2g4c | inactive: -0.0845
41 | UGAUAUUUGGUGUAUUCAGTT against Olfr972 | active: -2.06
42 | GGGUGACUUAGAAUUCUGUTT against Diras1 | inactive: 0.368
43 | GGUCCUUUGUCUAUAUCAATT against Suv39h1 | inactive: 1.25
44 | CCAAAAAAUCCUAUACUCUTT against Cdh8 | inactive: 1.42

Row | Sequence | z-score
45 | GGAAGAAGUGGAUGCUGGATT against Hecw1 | inactive: -0.0276
46 | GCUGAUGACCACUGAGUUUTT against Tsr2 | inactive: 1.34
47 | GCUAUUAAAGAGCCCACAATT against Sh3glb2 | inactive: -0.49
48 | GGGUGUCAAUCUAAAACAUTT against Cby1 | inactive: -0.998
49 | GGCCUGGAAUAGAUUUGUGTT against 2210016L21Rik | inactive: 0.855
50 | CGGAUUGACAAGUUUGCUATT against Tmem129 | inactive: -0.355
51 | GAAGACUCUCCAUUGGGUGTT against Lce1g | inactive: 1.33
52 | GGAUAAAACUGGUUACUCUTT against Adgrf1 | inactive: 0.193
53 | GGAGAGCAGUAUGAGAUCUTT against Galnt10 | inactive: -0.379
54 | GCACUCAGAACAACUAAAATT against Dglucy | inactive: 0.641
55 | GGCUUUGGCUCCAUUAUUCTT against Trmt6 | inactive: -0.545
56 | GCAGAUAGAAGACUGGAAUTT against 1700024G13Rik | inactive: 0.424
57 | GGUGAAGGCCUAUGAGAAGTT against Nosip | inactive: -0.211
58 | GGCCGCACCAUGUAUGUCATT against Pck1 | inactive: 0.866
59 | GGACCAUUCUUGCGUUCGUTT against Cacng7 | inactive: 1.66
60 | GGCCUCAAGGUGAUGGAAATT against Cdcp3 | inactive: -1.4
61 | GGAAAAUACAUUGAUGAGCTT against Xrcc4 | inactive: -0.575
62 | GGUAGACACACACAUUCAUTT against Ampd3 | inactive: 0.633
63 | CCAGAGGUCACGAUUACUUTT against Pcdha12 | inactive: 0.0422
64 | GGAUCUUCAGGAAAACAGATT against Fam181b | inactive: -0.955
65 | GGCUGUAAAAAUUAGUAUGTT against A630001G21Rik | inactive: 0.423
66 | CCAUAUGAAAUCCCUGCAUTT against Irs3 | inactive: 0.189

A different layout for some results above:
GGACCUGGAUUUGUGCUUUTT against Smim3
  z-score: inactive: -1.04
CGGAUUGACAAGUUUGCUATT against Tmem129
  z-score: inactive: -0.355

Following part:

Row | Sequence | z-score
67 | GCACUCUUCUUCUCUAGCATT against Pramel27 | inactive: 0.969
68 | CCCUGGUUGUUUGUAGAGUTT against Armt1 | active: 2.38
69 | GUGAACAACAUCCAAGCGATT against Dhrs7c | inactive: 0.183
70 | GGCAGACCAUGAAUGCUGUTT against Kcna2 | inactive: -0.84
71 | GGUGCUCACGUUUUUCUUATT against B3galnt1 | inactive: 0.348
72 | GGAUUCUCUUCCAUCUUACTT against Olfr266 | inactive: -1.31
73 | GCAGAUUCGGAAGUAAACATT against Rnf214 | inactive: 0.169
74 | GGAGUAUUCAACAUUUGUATT against Trim11 | inactive: -0.523
75 | GCGUGCUGUGUAAGAGUGUTT against Gja4 | active: -2.5
76 | GGAAGAUGAACAUCAAACATT against Dglucy | inactive: 0.855
77 | CGCAUACAUCAGUGUGGCATT against A730085E03Rik | inactive: -0.395
78 | GGUGCUUUCCAGCUAUCCCTT against Acsm2 | inactive: 0.804
79 | CGACAUGGAGAGAUGCACATT against Galnt14 | inactive: -0.518
80 | CCCUCAAGGCUGAUAAACATT against Il17b | active: -2.26
81 | GGAUCGAAUGUACCAACGGTT against Rnase4 | inactive: -0.613
82 | CCCACCUUAUGGGACAAAATT against Hlf | active: 2.05
83 | CCUAGCUGUUAGGAAGCAATT against Fat4 | inactive: 0.0555
84 | GGAGAAUUGUUUUUACCAGTT against Bbox1 | inactive: 0.13
85 | GGCAAGGUGCUGAUUCCCUTT against Itga9 | inactive: 0.0779
86 | CCUUCAAAUGUGGGAGUCCTT against Dmac2 | inactive: -1.3
87 | CCACAACAUUUGCUAAUAATT against Cysltr2 | inactive: -0.233
88 | GCAAAUCACACAUUCUCUGTT against Stk32b | inactive: -0.00833

Row | Sequence | z-score
89 | GGUAAUUAACAUGAAGUGUTT against Traf4 | inactive: -1.34
90 | GGGCCUCAAACAUCUGACUTT against Ccdc71 | inactive: -0.442
91 | CCCUAGGCCUACCUAAUGATT against Tmem138 | inactive: -0.894
92 | GGUGGAUGUCUCAGCAUAATT against Pafah1b2 | inactive: 1.27
93 | CGAGUUGUAUAGCAGCUCCTT against Dok2 | inactive: -0.573
94 | CCAUAAAUCAGCUAAAGCATT against Eea1 | inactive: 0.112
95 | GUUUUGUUUUUCCUCCAGUTT against Bcl9l | inactive: 0.929
96 | GGAAUAAAAGACCUUGGAUTT against Slc39a7 | inactive: 0.274
97 | GACGGUACAUCUGCUCAUCTT against Galr3 | inactive: -0.88
98 | GGUUCUGCUCCAACCUUUGTT against Gtf2b | inactive: 0.546
99 | GCCUCUACUGGUUAUUUAATT against Slc22a15 | active: 2.09
100 | GGACCAGGUAGAGCAAUUUTT against Hpdl | inactive: -0.52
101 | GGGCAAUUCUAUCAAAGAGTT against Gps1 | active: -2.14
102 | GGAAAGGAUAUUAUUGUUCTT against Olfr907 | inactive: -1.62
103 | GGCACAAGUCCAUGUUGUUTT against Emg1 | inactive: -0.161
104 | GGCUAUGAUGACUUCAACUTT against Gnb3 | inactive: -1.64
105 | CCUCCUUUUAGACAGAUGCTT against Gm4983 | inactive: -0.276
106 | GGAUCUUUGGAGAAAGAGATT against Kcnc3 | inactive: 0.957
